For five targets, NP40-soluble protein abundance results are on record in the supplement of paper PMC6411743.

By UniProt entry, the sequences of proteins in these tests, tags left out. Where a name states a change or a piece, a line headed by the entry shows the natural chain unless it says otherwise.
UniProt Q96P16: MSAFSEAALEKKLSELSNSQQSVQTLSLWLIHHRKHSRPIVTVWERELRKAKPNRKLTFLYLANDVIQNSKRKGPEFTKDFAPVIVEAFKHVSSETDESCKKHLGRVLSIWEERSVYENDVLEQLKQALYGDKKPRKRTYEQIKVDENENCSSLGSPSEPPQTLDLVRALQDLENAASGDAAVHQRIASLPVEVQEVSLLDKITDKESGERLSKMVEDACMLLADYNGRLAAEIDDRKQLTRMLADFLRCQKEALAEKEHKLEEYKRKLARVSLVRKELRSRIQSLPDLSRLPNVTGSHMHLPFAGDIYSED
UniProt Q9BY49: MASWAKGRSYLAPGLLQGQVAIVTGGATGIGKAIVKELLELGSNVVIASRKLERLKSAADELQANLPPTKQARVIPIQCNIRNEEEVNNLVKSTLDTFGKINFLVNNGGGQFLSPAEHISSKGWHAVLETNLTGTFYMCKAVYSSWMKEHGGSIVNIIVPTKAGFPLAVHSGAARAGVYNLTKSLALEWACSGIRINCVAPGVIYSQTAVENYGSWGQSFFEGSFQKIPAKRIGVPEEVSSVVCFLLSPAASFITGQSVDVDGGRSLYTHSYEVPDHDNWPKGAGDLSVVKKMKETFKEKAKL
UniProt Q9BQ67, whole entry: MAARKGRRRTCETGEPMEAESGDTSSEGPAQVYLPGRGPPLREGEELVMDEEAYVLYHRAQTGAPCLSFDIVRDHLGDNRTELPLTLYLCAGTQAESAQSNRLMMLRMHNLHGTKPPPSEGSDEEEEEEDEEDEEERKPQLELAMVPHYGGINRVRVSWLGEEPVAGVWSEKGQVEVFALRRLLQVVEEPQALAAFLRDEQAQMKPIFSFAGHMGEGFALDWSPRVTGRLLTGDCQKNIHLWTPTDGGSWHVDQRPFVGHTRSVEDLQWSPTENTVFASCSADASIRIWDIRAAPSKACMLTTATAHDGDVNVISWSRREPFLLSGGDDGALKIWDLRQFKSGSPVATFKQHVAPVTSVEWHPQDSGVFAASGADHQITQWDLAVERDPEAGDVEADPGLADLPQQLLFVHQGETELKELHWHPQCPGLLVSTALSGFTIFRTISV
UniProt Q96LT9: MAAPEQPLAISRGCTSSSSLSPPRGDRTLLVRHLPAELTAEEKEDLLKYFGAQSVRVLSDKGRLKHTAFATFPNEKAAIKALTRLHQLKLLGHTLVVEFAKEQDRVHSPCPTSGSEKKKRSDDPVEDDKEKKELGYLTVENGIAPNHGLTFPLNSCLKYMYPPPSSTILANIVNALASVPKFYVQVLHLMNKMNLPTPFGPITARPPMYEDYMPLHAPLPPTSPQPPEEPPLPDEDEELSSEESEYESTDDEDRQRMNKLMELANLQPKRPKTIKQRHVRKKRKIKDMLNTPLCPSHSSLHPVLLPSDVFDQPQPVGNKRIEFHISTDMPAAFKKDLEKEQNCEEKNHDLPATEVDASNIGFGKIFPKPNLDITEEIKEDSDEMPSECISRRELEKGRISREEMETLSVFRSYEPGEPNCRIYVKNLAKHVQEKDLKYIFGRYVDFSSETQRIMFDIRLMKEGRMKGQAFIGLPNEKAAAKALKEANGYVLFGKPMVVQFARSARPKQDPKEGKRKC
UniProt Q99942: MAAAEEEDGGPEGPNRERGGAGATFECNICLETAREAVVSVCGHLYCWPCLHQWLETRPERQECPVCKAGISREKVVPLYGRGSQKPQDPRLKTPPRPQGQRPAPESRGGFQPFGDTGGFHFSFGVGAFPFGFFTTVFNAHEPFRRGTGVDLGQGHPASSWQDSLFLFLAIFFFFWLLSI

± gives the standard deviation of the averaged measurements. This is one part of the list.

Compound in this experiment: Nc1nc2c(ncn2[C@@H]2O[C@H](COP(=O)(O)OP(=O)(O)OP(=O)(O)O)[C@@H](O)[C@H]2O)c(=O)[nH]1 [guanosine triphosphate]
Nature of the experiment: NP40-soluble protein abundance relative to vehicle (solubility fold change) (ratio); higher = more soluble protein in presence of GTP. Here is the method: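 Solubility proteome profiling in Jurkat crude lysate. Lysate was treated with Mg-GTP (0.1-10 mM) for 10 min at room temperature and 3 min at 37 °C, then solubilised with 0.8% NP40 and benzonase, followed by ultracentrifugation. Proteins were quantified by TMT10 LC-MS/MS; the value is the NP40-soluble abundance relative to the NP40-processed vehicle, from 3 independent experiments.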

As for RPRD1A (UniProt Q96P16), the NP40-soluble protein abundance is, setting by setting: (concentration: 0.1mM) 0.96 ± 0.036; (concentration: 0.5mM) 0.91 ± 0.057; (concentration: 1mM) 1.01 ± 0.029; (concentration: 2mM) 1.01 ± 0.047; (concentration: 4mM) 1.04 ± 0.047; (concentration: 6mM) 1.02 ± 0.021. In addition, the NP40-soluble protein abundance by setting is: (concentration: 8mM) 0.962 ± 0.11; (concentration: 10mM) 1.05 ± 0.02.

As to PECR (UniProt Q9BY49), the NP40-soluble protein abundance runs as follows: (concentration: 0.1mM) 1.03 ± 0.06; (concentration: 0.5mM) 1.01 ± 0.068; (concentration: 1mM) 1.02 ± 0.067; (concentration: 2mM) 1.03 ± 0.12; (concentration: 4mM) 1.05 ± 0.03; (concentration: 6mM) 1.13 ± 0.049. Moreover, the NP40-soluble protein abundance is 1.08 ± 0.045 (concentration: 8mM) and 1.02 ± 0.058 (concentration: 10mM).

As to GRWD1 (UniProt Q9BQ67), the NP40-soluble protein abundance reads like this: (concentration: 0.1mM) 0.947 ± 0.0056; (concentration: 0.5mM) 0.949 ± 0.037; (concentration: 1mM) 0.971 ± 0.025; (concentration: 2mM) 0.969 ± 0.06; (concentration: 4mM) 0.97 ± 0.043; (concentration: 6mM) 1.03 ± 0.017. Further, the NP40-soluble protein abundance is 1.01 ± 0.045 (concentration: 8mM) and 1.02 ± 0.082 (concentration: 10mM).

UniProt Q96LT9 and related entries: the NP40-soluble protein abundance (concentration: 0.1mM) amounted to 1.26 ± 0.038; the NP40-soluble protein abundance (concentration: 0.5mM) amounted to 1.16 ± 0.16; the NP40-soluble protein abundance (concentration: 1mM) was determined as 1.42 ± 0.12; the NP40-soluble protein abundance (concentration: 2mM) amounted to 1.49 ± 0.3; the NP40-soluble protein abundance (concentration: 4mM) was found to be 1.61 ± 0.28; the NP40-soluble protein abundance (concentration: 6mM) stood at 1.6 ± 0.35. In addition, the NP40-soluble protein abundance worked out at 1.72 ± 0.51 (concentration: 8mM) and 1.8 ± 0.54 (concentration: 10mM).

Consider RNF5 (UniProt Q99942), for which the NP40-soluble protein abundance (concentration: 0.1mM) came out at 0.966 ± 0.028; the NP40-soluble protein abundance (concentration: 0.5mM) is 0.984 ± 0.022; the NP40-soluble protein abundance (concentration: 1mM) was 0.964 ± 0.037; the NP40-soluble protein abundance (concentration: 2mM) is 0.9429 ± 0.0026; the NP40-soluble protein abundance (concentration: 4mM) came to 0.954 ± 0.051; the NP40-soluble protein abundance (concentration: 6mM) was 0.958 ± 0.065. Besides, the NP40-soluble protein abundance (concentration: 8mM) was found to be 0.9927 ± 0.0083 and the NP40-soluble protein abundance (concentration: 10mM) was found to be 1.01 ± 0.072.
